# Measured data: PubChem BioAssay AID602196 (INSERM, 2012)
# Assay: 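Knock-downs that protect lung cancer cells from cisplatin or sensitise them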
# Cell system: human A549 lung cancer cells
# Reagent: siRNA pair against human genes
# Time to read-out: 48 h transfection before cisplatin; time from cisplatin to read-out not stated
# Conditions: cisplatin at a dose killing half of control-siRNA cells; exact dose and duration not given
# Measurement: 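Shift in cisplatin death relative to control siRNA, from -50 (all cells die) to +50 (no cells die); siRNAs harmful on their own scored 0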
# Direction: two-siRNA summed score (-2 to +2): higher = both siRNAs protect from cisplatin killing; -2 means both sensitise; mean protection from cisplatin (shift in death) and protection from cisplatin (shift in death), siRNA C and protection from cisplatin (shift in death), siRNA D: higher = protection from cisplatin killing
# Call rule: 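siRNAs harmful alone (LDH or WST-1) get 0; others get +1 for less and -1 for more cisplatin killing; genes are active when the two siRNAs give the same sign, summing to ±2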
# Calls: active = both siRNAs shift cisplatin killing the same way; inactive = no consistent shift, or siRNA harmful alone
# Shown is one part, drawn at random, of about 23,000 deposited reagents. Over the whole deposit, 455 (2%) are marked active. 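Active includes both protection and sensitisation; some change values fall well beyond the stated -50 to +50 range.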 Unmarked entries are inactive. Not given: the amount of reagent.
gene,two-siRNA summed score (-2 to +2),mean protection from cisplatin (shift in death) (%),"protection from cisplatin (shift in death), siRNA C (%)","protection from cisplatin (shift in death), siRNA D (%)"
LOC400840,1,14.8,16.4,13.1
SMAP1 (GeneID 60682),0,6.4,6.8,6.1
ERVV-1 (GeneID 147664),1,15,18.6,11.4
CLDN2 (GeneID 9075),-1,-7.9,-3.2,-12.6
SLC25A18 (GeneID 83733),0,4.8,10,-0.3
DPH6 (GeneID 89978),0,4.4,7.1,1.7
KCNN1 (GeneID 3780),-1,-5.4,-23.7,12.9
TERB1 (GeneID 283847),0,12.8,11.1,14.5
CCHCR1 (GeneID 54535),0,-3,-10.6,4.5
DNAJC3 (GeneID 5611),0,5.2,5.9,4.5
LOC113386,0,-8.2,-9.2,-7.2
ETFB (GeneID 2109),0,-1.9,-1.5,-2.4
LOC442400,0,7.7,3.8,11.5
CDKN1A (GeneID 1026),0,1.2,5,-2.5
LOC339005,0,3.4,7.8,-1
RNF8 (GeneID 9025),0,6.5,4.8,8.2
SAMD11 (GeneID 148398),0,7.2,17.9,-3.5
BRCC3 (GeneID 79184),0,7,8.4,5.7
PLEKHS1 (GeneID 79949),0,3,-9.5,15.6
ARMC12 (GeneID 221481),0,5.2,1.9,8.5
ATG16L1 (GeneID 55054),0,2.8,4.8,0.8
CREB3L3 (GeneID 84699),0,15.1,18.3,11.9
SIPA1L2 (GeneID 57568),0,11.7,18.5,4.8
GRK4 (GeneID 2868),0,0.9,5.3,-3.4
LOC399969,0,-5.1,-15.7,5.6
KCTD4 (GeneID 386618),0,-0.3,5.1,-5.6
TTPAL (GeneID 79183),0,5.5,4.3,6.7
TNF (GeneID 7124),0,14.7,-2.8,32.3
CLASRP (GeneID 11129),0,0.2,15.2,-14.9
LOC440954,0,24.8,34.7,15
CLCN1 (GeneID 1180),0,8.7,11.4,6
LOC440358,0,5.7,3.5,8
LOC388890,1,7.1,-7.7,21.9
CUZD1 (GeneID 50624),0,1.7,0.8,2.6
DSG3 (GeneID 1830),-2 (active),-9.8,-11.9,-7.8
FAM47A (GeneID 158724),-1,-14.1,1.8,-30
CARD6 (GeneID 84674),0,11.3,-3.6,26.2
HYPK (GeneID 25764),0,-1.1,3.2,-5.4
SPRR2D (GeneID 6703),0,4.4,9.8,-1.1
RPL4 (GeneID 6124),0,18.5,26.5,10.4
NLGN1 (GeneID 22871),0,3.7,-2.3,9.8
BMP6 (GeneID 654),-1,-8.6,2.4,-19.6
LOC441836,0,9.5,4.6,14.4
TCL6 (GeneID 27004),0,4,3.8,4.2
LRRK1 (GeneID 79705),0,4.2,14.9,-6.5
PTF1A (GeneID 256297),0,-9.3,-8.2,-10.5
ZNF263 (GeneID 10127),0,14.5,34.2,-5.3
DTL (GeneID 51514),0,-17.2,-10,-24.4
TMEM208 (GeneID 29100),0,1.3,-0.2,2.8
CHPT1 (GeneID 56994),0,-1.8,9.7,-13.4
ROCK1 (GeneID 6093),1,12.2,11.2,13.2
NCKAP1L (GeneID 3071),0,22.5,36.6,8.3
LOC388227,0,-2.1,6.5,-10.8
TMEM31 (GeneID 203562),0,-2.8,7.1,-12.7
CPEB2-DT (GeneID 441009),0,4.4,2.2,6.5
CBR3 (GeneID 874),0,-7.7,-8.7,-6.7
PCDHA7 (GeneID 56141),0,5.3,6.6,4.1
KRT28 (GeneID 162605),-1,2.2,-17.7,22
EXO5 (GeneID 64789),0,3.7,3.4,4.1
ALKBH8 (GeneID 91801),0,7.2,-8.9,23.4
KATNAL2 (GeneID 83473),0,9.1,7,11.2
TBC1D25 (GeneID 4943),0,11.3,14.6,7.9
H3C11 (GeneID 8354),0,1.8,-1.6,5.3
REG3G (GeneID 130120),0,2.2,7.1,-2.6
MYL2 (GeneID 4633),2 (active),20.8,19.3,22.3
NCAPD3 (GeneID 23310),1,12.7,18,7.4
SHMT1 (GeneID 6470),1,8.3,13.5,3.2
LOC401095,0,9.1,12.3,6
DPT (GeneID 1805),1,11.7,23.3,0.1
LOC401131 (GeneID 401131),0,9.1,10.9,7.3
LINC00640 (GeneID 283553),1,9.6,21,-1.8
TAS2R43 (GeneID 259289),0,2.2,-2.8,7.1
LOC442532,0,4.1,0.6,7.5
